Results published in the supplement of paper PMC10849652.
The other results are listed elsewhere or left out. Residues, ends and D or L forms follow the SMILES beside them. *: point of attachment. Cbz = O=C(OCc1ccccc1)*

The chains behind the UniProt entries cited, without tags or fusion partners. Where a name states a change or a piece, a line headed by the entry shows the natural chain unless it says otherwise.
UniProt Q6ZWT7: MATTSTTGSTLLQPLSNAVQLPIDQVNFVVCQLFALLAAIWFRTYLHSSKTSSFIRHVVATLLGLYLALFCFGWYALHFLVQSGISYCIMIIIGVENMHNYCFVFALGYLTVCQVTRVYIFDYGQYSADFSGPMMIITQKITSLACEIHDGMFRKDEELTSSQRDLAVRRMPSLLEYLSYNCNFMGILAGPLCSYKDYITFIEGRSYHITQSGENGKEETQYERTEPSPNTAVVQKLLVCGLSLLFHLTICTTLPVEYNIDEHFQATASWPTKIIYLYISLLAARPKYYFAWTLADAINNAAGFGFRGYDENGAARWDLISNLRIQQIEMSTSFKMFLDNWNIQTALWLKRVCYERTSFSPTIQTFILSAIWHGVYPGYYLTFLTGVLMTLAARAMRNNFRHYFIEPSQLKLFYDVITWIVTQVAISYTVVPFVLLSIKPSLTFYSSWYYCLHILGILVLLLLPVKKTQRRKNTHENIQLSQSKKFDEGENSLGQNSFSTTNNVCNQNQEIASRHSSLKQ
UniProt Q06413, whole entry, looked up: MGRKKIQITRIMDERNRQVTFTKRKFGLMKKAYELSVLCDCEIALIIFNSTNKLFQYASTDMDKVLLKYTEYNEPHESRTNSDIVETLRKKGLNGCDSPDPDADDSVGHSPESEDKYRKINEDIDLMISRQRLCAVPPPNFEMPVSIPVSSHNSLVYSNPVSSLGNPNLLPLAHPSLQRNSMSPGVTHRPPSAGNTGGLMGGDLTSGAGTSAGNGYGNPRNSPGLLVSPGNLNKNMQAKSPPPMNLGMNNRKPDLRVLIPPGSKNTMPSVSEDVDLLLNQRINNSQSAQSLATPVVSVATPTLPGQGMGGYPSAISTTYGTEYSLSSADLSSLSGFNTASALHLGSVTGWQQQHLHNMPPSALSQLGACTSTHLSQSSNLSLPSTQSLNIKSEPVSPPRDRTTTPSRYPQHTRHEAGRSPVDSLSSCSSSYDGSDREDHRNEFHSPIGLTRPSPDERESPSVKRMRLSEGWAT
UniProt Q9NPJ6: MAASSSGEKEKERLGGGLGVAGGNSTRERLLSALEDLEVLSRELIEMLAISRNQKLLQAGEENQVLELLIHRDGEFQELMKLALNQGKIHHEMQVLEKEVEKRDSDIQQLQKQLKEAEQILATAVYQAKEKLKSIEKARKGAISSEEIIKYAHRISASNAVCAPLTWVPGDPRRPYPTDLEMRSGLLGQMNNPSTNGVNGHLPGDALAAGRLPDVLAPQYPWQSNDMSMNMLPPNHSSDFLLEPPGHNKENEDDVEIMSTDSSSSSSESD
UniProt Q14566: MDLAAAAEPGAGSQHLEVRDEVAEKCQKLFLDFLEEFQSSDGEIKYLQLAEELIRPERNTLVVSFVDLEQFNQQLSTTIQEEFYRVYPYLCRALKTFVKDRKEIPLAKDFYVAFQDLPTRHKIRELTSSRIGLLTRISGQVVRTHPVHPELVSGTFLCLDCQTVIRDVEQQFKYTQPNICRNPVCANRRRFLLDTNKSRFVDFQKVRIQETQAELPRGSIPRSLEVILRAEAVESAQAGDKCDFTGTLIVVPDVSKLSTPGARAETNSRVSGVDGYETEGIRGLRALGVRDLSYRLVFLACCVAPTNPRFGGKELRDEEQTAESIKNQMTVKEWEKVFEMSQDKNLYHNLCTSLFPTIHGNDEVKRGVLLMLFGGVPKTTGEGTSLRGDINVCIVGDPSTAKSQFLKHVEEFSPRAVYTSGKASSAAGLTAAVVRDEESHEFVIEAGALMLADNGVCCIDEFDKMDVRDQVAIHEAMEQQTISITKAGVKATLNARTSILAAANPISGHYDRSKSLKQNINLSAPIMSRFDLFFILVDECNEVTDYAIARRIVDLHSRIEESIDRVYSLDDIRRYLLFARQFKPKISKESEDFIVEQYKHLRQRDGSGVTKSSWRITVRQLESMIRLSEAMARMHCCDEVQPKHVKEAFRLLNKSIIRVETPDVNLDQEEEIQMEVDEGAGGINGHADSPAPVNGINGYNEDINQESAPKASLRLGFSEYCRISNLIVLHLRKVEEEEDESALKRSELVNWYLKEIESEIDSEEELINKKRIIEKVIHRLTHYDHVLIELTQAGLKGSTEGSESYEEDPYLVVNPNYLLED
UniProt Q86V88: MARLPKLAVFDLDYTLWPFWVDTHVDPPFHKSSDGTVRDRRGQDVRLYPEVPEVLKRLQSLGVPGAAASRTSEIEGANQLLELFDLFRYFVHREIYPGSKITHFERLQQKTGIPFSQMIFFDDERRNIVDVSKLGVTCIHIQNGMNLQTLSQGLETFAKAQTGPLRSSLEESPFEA
UniProt Q96RQ3: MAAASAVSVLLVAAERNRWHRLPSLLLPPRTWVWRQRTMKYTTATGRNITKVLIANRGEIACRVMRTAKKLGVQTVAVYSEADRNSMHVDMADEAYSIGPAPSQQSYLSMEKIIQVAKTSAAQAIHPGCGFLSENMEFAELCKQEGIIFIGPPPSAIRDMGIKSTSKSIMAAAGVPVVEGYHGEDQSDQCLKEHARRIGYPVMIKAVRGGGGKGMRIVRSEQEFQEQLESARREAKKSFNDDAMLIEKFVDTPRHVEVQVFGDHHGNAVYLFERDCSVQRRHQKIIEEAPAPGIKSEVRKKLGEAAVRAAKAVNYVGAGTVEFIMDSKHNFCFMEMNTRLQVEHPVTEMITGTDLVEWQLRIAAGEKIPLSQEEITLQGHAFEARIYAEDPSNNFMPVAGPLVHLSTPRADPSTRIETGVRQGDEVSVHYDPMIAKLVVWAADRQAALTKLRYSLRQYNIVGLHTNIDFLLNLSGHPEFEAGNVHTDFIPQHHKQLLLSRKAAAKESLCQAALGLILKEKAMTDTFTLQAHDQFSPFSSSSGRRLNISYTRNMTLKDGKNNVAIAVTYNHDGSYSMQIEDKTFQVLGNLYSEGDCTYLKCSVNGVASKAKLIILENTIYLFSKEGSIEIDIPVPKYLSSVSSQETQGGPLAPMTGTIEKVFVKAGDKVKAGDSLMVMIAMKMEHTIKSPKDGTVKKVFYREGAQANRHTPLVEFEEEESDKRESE
UniProt P56270: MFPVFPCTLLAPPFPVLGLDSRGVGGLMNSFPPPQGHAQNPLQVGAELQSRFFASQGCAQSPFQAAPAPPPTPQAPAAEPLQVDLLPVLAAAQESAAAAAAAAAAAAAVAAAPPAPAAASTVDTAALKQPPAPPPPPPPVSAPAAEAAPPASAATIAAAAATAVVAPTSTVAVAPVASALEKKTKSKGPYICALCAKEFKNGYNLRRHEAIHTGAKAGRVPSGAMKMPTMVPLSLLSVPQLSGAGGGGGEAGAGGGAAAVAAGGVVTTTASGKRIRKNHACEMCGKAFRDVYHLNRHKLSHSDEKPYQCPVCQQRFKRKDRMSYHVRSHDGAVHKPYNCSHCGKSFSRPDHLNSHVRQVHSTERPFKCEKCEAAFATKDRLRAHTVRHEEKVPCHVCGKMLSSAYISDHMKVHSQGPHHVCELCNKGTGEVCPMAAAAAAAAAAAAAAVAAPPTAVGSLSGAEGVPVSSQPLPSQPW
UniProt Q9BV79: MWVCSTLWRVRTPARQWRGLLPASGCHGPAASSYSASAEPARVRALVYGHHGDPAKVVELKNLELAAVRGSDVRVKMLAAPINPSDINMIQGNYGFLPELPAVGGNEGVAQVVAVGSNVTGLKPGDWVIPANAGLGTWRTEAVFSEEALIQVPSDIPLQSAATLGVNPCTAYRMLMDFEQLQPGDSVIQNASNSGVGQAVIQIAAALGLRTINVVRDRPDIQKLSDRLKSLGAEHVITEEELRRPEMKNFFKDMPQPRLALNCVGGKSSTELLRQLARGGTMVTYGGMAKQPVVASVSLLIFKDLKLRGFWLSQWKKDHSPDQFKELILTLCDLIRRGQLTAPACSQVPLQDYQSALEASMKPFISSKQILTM
UniProt P51608, whole entry, looked up: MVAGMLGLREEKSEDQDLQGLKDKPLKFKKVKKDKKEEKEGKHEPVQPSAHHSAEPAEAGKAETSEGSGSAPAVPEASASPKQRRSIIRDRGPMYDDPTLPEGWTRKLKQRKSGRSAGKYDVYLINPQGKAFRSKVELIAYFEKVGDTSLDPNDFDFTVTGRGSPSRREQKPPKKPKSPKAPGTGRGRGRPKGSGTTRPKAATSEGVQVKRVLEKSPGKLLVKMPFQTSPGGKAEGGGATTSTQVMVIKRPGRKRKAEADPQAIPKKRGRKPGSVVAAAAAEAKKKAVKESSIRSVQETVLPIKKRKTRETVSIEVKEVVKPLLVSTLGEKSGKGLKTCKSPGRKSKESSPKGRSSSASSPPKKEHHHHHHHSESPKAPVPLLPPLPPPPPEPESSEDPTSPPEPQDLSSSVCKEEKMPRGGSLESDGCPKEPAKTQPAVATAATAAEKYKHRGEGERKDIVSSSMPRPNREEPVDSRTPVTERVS
UniProt P43121, whole entry, looked up: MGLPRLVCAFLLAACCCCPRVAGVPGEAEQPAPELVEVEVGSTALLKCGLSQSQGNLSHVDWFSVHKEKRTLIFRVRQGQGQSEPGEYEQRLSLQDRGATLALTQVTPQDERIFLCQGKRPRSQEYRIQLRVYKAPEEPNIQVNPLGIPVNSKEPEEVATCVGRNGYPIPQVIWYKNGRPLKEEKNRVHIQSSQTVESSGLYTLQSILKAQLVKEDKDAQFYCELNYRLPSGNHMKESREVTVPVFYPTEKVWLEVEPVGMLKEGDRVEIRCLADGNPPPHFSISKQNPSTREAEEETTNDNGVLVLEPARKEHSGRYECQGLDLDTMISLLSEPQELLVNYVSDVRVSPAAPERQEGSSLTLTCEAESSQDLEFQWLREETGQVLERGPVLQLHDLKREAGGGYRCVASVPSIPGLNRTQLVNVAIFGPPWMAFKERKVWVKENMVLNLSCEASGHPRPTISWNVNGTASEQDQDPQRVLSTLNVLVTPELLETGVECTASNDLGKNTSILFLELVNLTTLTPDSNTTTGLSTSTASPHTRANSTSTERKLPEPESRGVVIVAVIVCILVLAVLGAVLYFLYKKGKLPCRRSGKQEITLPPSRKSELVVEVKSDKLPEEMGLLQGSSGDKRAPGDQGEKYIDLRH
UniProt Q09328: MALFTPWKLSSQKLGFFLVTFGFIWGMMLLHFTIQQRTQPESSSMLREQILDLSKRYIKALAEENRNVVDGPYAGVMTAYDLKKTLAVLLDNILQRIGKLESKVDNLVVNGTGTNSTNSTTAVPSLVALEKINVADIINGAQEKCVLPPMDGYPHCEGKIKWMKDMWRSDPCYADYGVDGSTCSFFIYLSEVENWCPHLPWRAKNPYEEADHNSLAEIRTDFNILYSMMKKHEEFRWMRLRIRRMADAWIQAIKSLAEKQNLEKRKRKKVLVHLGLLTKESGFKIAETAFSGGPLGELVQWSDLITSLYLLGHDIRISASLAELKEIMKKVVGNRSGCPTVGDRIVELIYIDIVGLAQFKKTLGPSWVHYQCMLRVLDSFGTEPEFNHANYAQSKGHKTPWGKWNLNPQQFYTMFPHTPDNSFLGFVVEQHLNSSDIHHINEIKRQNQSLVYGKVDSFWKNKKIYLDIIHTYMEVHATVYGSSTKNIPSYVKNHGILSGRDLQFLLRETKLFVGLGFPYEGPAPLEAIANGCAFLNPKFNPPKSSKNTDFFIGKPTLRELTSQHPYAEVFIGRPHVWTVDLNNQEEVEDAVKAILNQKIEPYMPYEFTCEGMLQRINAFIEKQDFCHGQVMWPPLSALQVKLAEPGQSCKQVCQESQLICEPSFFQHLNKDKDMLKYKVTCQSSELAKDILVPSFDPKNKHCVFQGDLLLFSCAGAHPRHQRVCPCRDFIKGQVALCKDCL
UniProt Q99735: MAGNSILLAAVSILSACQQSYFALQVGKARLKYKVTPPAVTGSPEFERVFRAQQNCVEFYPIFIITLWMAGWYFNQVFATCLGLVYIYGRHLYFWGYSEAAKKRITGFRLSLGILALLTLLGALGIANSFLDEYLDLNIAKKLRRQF
UniProt Q86W50: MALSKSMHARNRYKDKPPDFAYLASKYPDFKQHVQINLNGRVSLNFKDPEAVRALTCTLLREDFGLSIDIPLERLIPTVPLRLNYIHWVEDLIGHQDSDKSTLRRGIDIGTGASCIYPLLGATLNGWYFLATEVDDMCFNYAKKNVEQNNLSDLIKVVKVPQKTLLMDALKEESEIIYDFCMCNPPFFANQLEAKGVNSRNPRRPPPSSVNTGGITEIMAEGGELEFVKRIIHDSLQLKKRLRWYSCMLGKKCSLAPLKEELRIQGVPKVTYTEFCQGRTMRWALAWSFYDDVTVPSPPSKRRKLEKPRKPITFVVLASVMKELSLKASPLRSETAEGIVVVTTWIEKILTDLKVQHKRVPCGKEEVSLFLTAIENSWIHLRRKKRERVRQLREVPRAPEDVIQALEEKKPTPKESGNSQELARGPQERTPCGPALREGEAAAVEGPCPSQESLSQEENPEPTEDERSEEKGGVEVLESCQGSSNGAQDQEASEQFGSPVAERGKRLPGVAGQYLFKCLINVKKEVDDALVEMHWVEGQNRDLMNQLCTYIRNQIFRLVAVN

What was measured:
Test in all cases: log2 fold change, soluble protein after heating vs DMSO (PISA); higher = thermal stabilisation; K562 cells, 10 uM, 30 min; active = over 0.2 and 3.5 SD of the protein, either way, in both replicates (recomputed)
IRAK-1-4 Inhibitor I = compound: C1COCCN1CCN2C3=CC=CC=C3N=C2NC(=O)C4=CC(=CC=C4)[N+](=O)[O-] [IRAK-1-4 Inhibitor I]
Method in brief: (§1)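 K562 cells at 2×10^6 cells/mL were exposed to 10 μM compound for 30 min, then aliquots were heated for 3 min across 48°C-58°C, pooled, and extracted in PBS containing 0.5% NP-40 at 4°C. The supernatant after 21,000xg for 90 min was taken as soluble protein and measured by TMTpro 16plex LC-MS/MS with channel sums equalised. Thermal stability is reported relative to control samples, with values from duplicates. Fold changes are given on a log2 scale.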

ibrutinib = compound: C=CC(=O)N1CCC[C@@H](n2nc(-c3ccc(Oc4ccccc4)cc3)c3c(N)ncnc32)C1 [ibrutinib]
Method in brief: as §1

[1] = compound: CC(=O)c1cnc2ccc(-c3cc(Cl)c(O)c(Cl)c3)nc2c1N[C@H]1CC[C@H](CN(C)C)CC1
Method in brief: as §1

ralimetinib = compound: CC(C)(C)Cn1c(N)nc2ccc(-c3[nH]c(C(C)(C)C)nc3-c3ccc(F)cc3)nc21 [ralimetinib]
Method in brief: as §1

[2] = compound: CC(C)(O)CC(=O)NCCn1ccc2ncnc(Nc3ccc(Oc4cccc(C(F)(F)F)c4)c(Cl)c3)c21
Method in brief: as §1

[3] = compound: CC(C)C1=C2N=C(C=C(N2N=C1)NCC3=CC=CC=C3)NCCCCCCN
Method in brief: as §1

[4] = compound: CC(C)C[C@@H](C=O)NC(=O)[C@H](CC(C)C)NC(=O)[C@H](CC(C)C)NC(=O)OCc1ccccc1
Method in brief: as §1

pinometostat = compound: CC(C)N(C[C@H]1O[C@@H](n2cnc3c(N)ncnc32)[C@H](O)[C@@H]1O)[C@H]1C[C@@H](CCc2nc3cc(C(C)(C)C)ccc3[nH]2)C1 [pinometostat]
Method in brief: as §1

[5] = compound: CC1=C(C(CC(=O)N1)C2=CC=C(C=C2)C(F)(F)F)C(=O)NC3=C(C=C4C(=C3)C=NN4)F
Method in brief: as §1

[6] = compound: CC1=C(C2=C(C=C1)C(=O)C3=CC=CC=C3N2CCCN)C
Method in brief: as §1

[7] = compound: CC1=C(C=C(C=C1)NC(=O)C2=CC(=CC=C2)C(C)(C)C#N)NC3=CC4=C(C=C3)N=CN(C4=O)C
Method in brief: as §1

[8] = compound: CC1=C(C=C(C=C1)NC(=O)C2=CC(=CC=C2)N(C)C)NC(=O)C3=CC=C(C=C3)O
Method in brief: as §1

[9] = compound: CC1=CC=C(C=C1)SC2=C3C=C(SC3=CN=C2)C(=O)N
Method in brief: as §1

[10] = compound: CC1=NC(=CC=C1)C2=C(N=C(N2)C(C)(C)C)C3=CC4=NC=CN=C4C=C3
Method in brief: as §1

Nexturastat A = compound: CCCCN(Cc1ccc(C(=O)NO)cc1)C(=O)Nc1ccccc1 [Nexturastat A]
Method in brief: as §1

vemurafenib = compound: CCCS(=O)(=O)Nc1ccc(F)c(C(=O)c2c[nH]c3ncc(-c4ccc(Cl)cc4)cc23)c1F [vemurafenib]
Method in brief: as §1

[11] = compound: CCCS(=O)(=O)Nc1ccc(F)c(C(=O)c2c[nH]c3ncc(Cl)cc23)c1F
Method in brief: as §1

[12] = compound: CCCc1cc(C)[nH]c(=O)c1CNC(=O)c1cc(-c2ccnc(N3CCN(C)CC3)c2)cc2c1cnn2C(C)C
Method in brief: as §1

givinostat = compound: CCN(CC)Cc1ccc2cc(COC(=O)Nc3ccc(C(=O)NO)cc3)ccc2c1 [givinostat]
Method in brief: as §1

barasertib = compound: CCN(CCCOc1ccc2c(Nc3cc(CC(=O)Nc4cccc(F)c4)[nH]n3)ncnc2c1)CCOP(=O)(O)O [barasertib]
Method in brief: as §1

Measured: log2 fold change

MBOAT2 (UniProt Q6ZWT7)
inactive: IRAK-1-4 Inhibitor I 0.018 | ibrutinib -0.015 | [1] -0.023 | ralimetinib 0.003 | [2] 0.026 | [3] 0.026 | [4] -0.061 | pinometostat 0.052 | [5] 0.009 | [6] 0.045 | [7] 0.05 | [8] 0.02 | [9] -0.012 | [10] -0.032 | Nexturastat A 0.05 | vemurafenib 0.043 | [11] 0.062 | [12] -0.036 | givinostat 0.011 | barasertib 0.008

MEF2C isoform 5 (UniProt Q06413)
inactive: IRAK-1-4 Inhibitor I 0.029 | ibrutinib -0.109 | [1] 0.029 | ralimetinib -0.018 | [2] 0.031 | [3] 0.002 | [4] 0.081 | pinometostat 0.023 | [5] -0.127 | [6] -0.17 | [7] -0.052 | [8] 0.026 | [9] -0.061 | [10] -0.052 | Nexturastat A 0.007 | vemurafenib -0.008 | [11] -0.079 | [12] 0.05 | givinostat -0.039 | barasertib -0.039

MED4 (UniProt Q9NPJ6)
inactive: IRAK-1-4 Inhibitor I -0.039 | ibrutinib 0.009 | [1] -0.112 | ralimetinib 0 | [2] 0.043 | [3] -0.032 | [4] 0.079 | pinometostat 0 | [5] 0.063 | [6] 0.036 | [7] -0.024 | [8] -0.018 | [9] -0.114 | [10] 0.011 | Nexturastat A 0.065 | vemurafenib 0.014 | [11] -0.036 | [12] -0.052 | givinostat 0.016 | barasertib 0.125

MCM6 (UniProt Q14566)
inactive: IRAK-1-4 Inhibitor I 0.024 | ibrutinib -0.008 | [1] -0.036 | ralimetinib -0.028 | [2] -0.005 | [3] -0.063 | [4] -0.048 | pinometostat -0.026 | [5] 0.002 | [6] -0.036 | [7] -0.063 | [8] -0.004 | [9] -0.007 | [10] 0.018 | Nexturastat A -0.098 | vemurafenib 0.005 | [11] 0.044 | [12] -0.037 | givinostat -0.042 | barasertib 0.023

MDP1 (UniProt Q86V88)
inactive: IRAK-1-4 Inhibitor I 0.033 | ibrutinib -0.026 | [1] 0.014 | ralimetinib -0.068 | [2] 0.006 | [3] 0.109 | [4] -0.062 | pinometostat 0.02 | [5] 0.006 | [6] -0.131 | [7] -0.031 | [8] -0.033 | [9] 0.038 | [10] -0.033 | Nexturastat A 0.044 | vemurafenib 0 | [11] -0.018 | [12] -0.035 | givinostat -0.028 | barasertib 0.029

MCCC1 (UniProt Q96RQ3)
inactive: IRAK-1-4 Inhibitor I 0.038 | ibrutinib 0 | [1] -0.079 | ralimetinib -0.037 | [2] -0.128 | [3] 0.044 | [4] 0.005 | pinometostat -0.054 | [5] 0.006 | [6] 0.1 | [7] 0.021 | [8] -0.055 | [9] -0.012 | [10] -0.004 | Nexturastat A -0.021 | vemurafenib 0.044 | [11] 0.02 | [12] 0.001 | givinostat -0.004 | barasertib 0.017

MAZ isoform 2 (UniProt P56270)
inactive: IRAK-1-4 Inhibitor I -0.085 | ibrutinib 0.062 | [1] 0.061 | ralimetinib 0.188 | [2] 0.059 | [3] 0.04 | [4] 0.1 | pinometostat 0.177 | [5] -0.006 | [6] -0.247 | [7] 0.028 | [8] -0.027 | [9] -0.064 | [10] -0.082 | Nexturastat A 0.135 | vemurafenib -0.044 | [11] -0.034 | [12] 0.146 | givinostat -0.081 | barasertib -0.1

MECR (UniProt Q9BV79)
inactive: IRAK-1-4 Inhibitor I 0.027 | ibrutinib 0.027 | [1] -0.044 | ralimetinib -0.016 | [2] -0.012 | [3] -0.001 | [4] 0.058 | pinometostat -0.028 | [5] -0.082 | [6] 0.033 | [7] -0.006 | [8] -0.102 | [9] -0.001 | [10] -0.031 | Nexturastat A -0.033 | vemurafenib -0.008 | [11] 0.002 | [12] -0.016 | givinostat -0.039 | barasertib -0.01

MBOAT7 (UniProt Q96N66)
inactive: IRAK-1-4 Inhibitor I 0 | ibrutinib 0.008 | [1] 0.041 | ralimetinib -0.068 | [2] 0 | [3] 0.041 | [4] -0.06 | pinometostat -0.025 | [5] 0.006 | [6] 0.033 | [7] 0 | [8] 0.017 | [9] 0.028 | [10] 0.016 | Nexturastat A -0.019 | vemurafenib 0.001 | [11] 0.012 | [12] -0.033 | givinostat -0.028 | barasertib -0.015

MECP2 isoform 2 (UniProt P51608)
inactive: IRAK-1-4 Inhibitor I -0.06 | ibrutinib 0.039 | [1] 0.111 | ralimetinib 0.154 | [2] 0 | [3] -0.009 | [4] 0.041 | pinometostat 0.286 | [5] 0.008 | [6] -0.416 | [7] -0.029 | [8] 0 | [9] -0.041 | [10] -0.073 | Nexturastat A 0.13 | vemurafenib -0.079 | [11] -0.065 | [12] 0.199 | givinostat -0.026 | barasertib -0.089

MCAM (UniProt P43121)
inactive: IRAK-1-4 Inhibitor I -0.01 | ibrutinib 0.046 | [1] -0.015 | ralimetinib -0.045 | [2] 0.033 | [3] 0.183 | [4] 0.016 | pinometostat -0.068 | [5] -0.016 | [6] 0.014 | [7] 0.009 | [8] -0.005 | [9] 0.037 | [10] 0.011 | Nexturastat A -0.007 | vemurafenib -0.022 | [11] 0.003 | [12] -0.068 | givinostat -0.018 | barasertib -0.014

MGAT5 (UniProt Q09328)
inactive: IRAK-1-4 Inhibitor I 0.004 | ibrutinib -0.001 | [1] -0.01 | ralimetinib -0.022 | [2] -0.044 | [3] -0.036 | [4] -0.009 | pinometostat 0.047 | [5] -0.024 | [6] 0.05 | [7] -0.125 | [8] 0.063 | [9] 0.048 | [10] -0.023 | Nexturastat A 0.147 | vemurafenib -0.051 | [11] 0.003 | [12] -0.019 | givinostat 0.027 | barasertib 0.012

MGST2 (UniProt Q99735)
inactive: IRAK-1-4 Inhibitor I 0.067 | ibrutinib 0.032 | [1] 0.019 | ralimetinib -0.052 | [2] 0.093 | [3] 0.049 | [4] 0.005 | pinometostat 0.015 | [5] 0.03 | [6] 0.067 | [7] -0.045 | [8] 0.051 | [9] 0.013 | [10] -0.137 | Nexturastat A -0.026 | vemurafenib -0.016 | [11] -0.025 | [12] -0.126 | givinostat -0.053 | barasertib 0.017

METTL16 (UniProt Q86W50)
inactive: IRAK-1-4 Inhibitor I 0.01 | ibrutinib -0.044 | [1] -0.01 | ralimetinib 0.031 | [2] -0.034 | [3] -0.027 | [4] -0.015 | pinometostat 0.04 | [5] 0 | [6] -0.207 | [7] 0.028 | [8] -0.069 | [9] 0.003 | [10] -0.029 | Nexturastat A 0.031 | vemurafenib 0.006 | [11] 0.071 | [12] 0.013 | givinostat 0.005 | barasertib 0.029

METTL1 (UniProt Q9UBP6)
inactive: IRAK-1-4 Inhibitor I 0.034 | ibrutinib 0.006 | [1] -0.039 | ralimetinib 0.041 | [2] -0.015 | [3] 0.056 | [4] -0.123 | pinometostat -0.062 | [5] -0.029 | [6] -0.066 | [7] -0.032 | [8] -0.065 | [9] -0.026 | [10] 0.036 | Nexturastat A -0.05 | vemurafenib 0.07 | [11] -0.016 | [12] 0.033 | givinostat -0.072 | barasertib 0.014

MAT2A (UniProt P31153)
inactive: IRAK-1-4 Inhibitor I 0.058 | ibrutinib -0.004 | [1] 0.004 | ralimetinib -0.068 | [2] 0.017 | [3] 0.062 | [4] 0.009 | pinometostat -0.003 | [5] -0.002 | [6] -0.027 | [7] -0.028 | [8] 0.011 | [9] -0.014 | [10] -0.021 | Nexturastat A -0.061 | vemurafenib -0.028 | [11] -0.05 | [12] -0.012 | givinostat -0.022 | barasertib 0.031

Two entries picked at random from the list so far:
MGST2 (UniProt Q99735)
inactive: IRAK-1-4 Inhibitor I 0.067 | ibrutinib 0.032 | [1] 0.019 | ralimetinib -0.052 | [2] 0.093 | [3] 0.049 | [4] 0.005 | pinometostat 0.015 | [5] 0.03 | [6] 0.067 | [7] -0.045 | [8] 0.051 | [9] 0.013 | [10] -0.137 | Nexturastat A -0.026 | vemurafenib -0.016 | [11] -0.025 | [12] -0.126 | givinostat -0.053 | barasertib 0.017

MAT2A (UniProt P31153)
inactive: IRAK-1-4 Inhibitor I 0.058 | ibrutinib -0.004 | [1] 0.004 | ralimetinib -0.068 | [2] 0.017 | [3] 0.062 | [4] 0.009 | pinometostat -0.003 | [5] -0.002 | [6] -0.027 | [7] -0.028 | [8] 0.011 | [9] -0.014 | [10] -0.021 | Nexturastat A -0.061 | vemurafenib -0.028 | [11] -0.05 | [12] -0.012 | givinostat -0.022 | barasertib 0.031
